Source: doi:10.1371/journal.pone.0140310, primary screening data, rounded.

Drugs:
nutlin-3: COc1ccc(C2=N[C@@H](c3ccc(Cl)cc3)[C@@H](c3ccc(Cl)cc3)N2C(=O)N2CCNC(=O)C2)c(OC(C)C)c1 at 500 nM
vorinostat: O=C(CCCCCCC(=O)Nc1ccccc1)NO at 400 nM
IMD-0354: O=C(Nc1cc(C(F)(F)F)cc(C(F)(F)F)c1)c1cc(Cl)ccc1O at 80 nM
SNS-032: CC(C)(C)c1cnc(CSc2cnc(NC(=O)C3CCNCC3)s2)o1 at 50 nM
GW2580: COc1ccc(COc2ccc(Cc3cnc(N)nc3N)cc2OC)cc1 at 5000 nM
enzastaurin: Cn1cc(C2=C(c3cn(C4CCN(Cc5ccccn5)CC4)c4ccccc34)C(=O)NC2=O)c2ccccc21 at 4000 nM
Src-I1: COc1cc2ncnc(Nc3ccc(Oc4ccccc4)cc3)c2cc1OC at 10000 nM
pioglitazone: CCc1ccc(CCOc2ccc(CC3SC(=O)NC3=O)cc2)nc1 (stereo not given) at 10000 nM
MK-2206: NC1(c2ccc(-c3nc4ccn5c(=O)[nH]nc5c4cc3-c3ccccc3)cc2)CCC1 at 2000 nM

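The test systems are human melanoma cell lines, treated with two drugs together for 72 h and then stained and imaged. Values are the share of nuclei positive for cleaved PARP as a percentage of the same share in the DMSO control: 100 is the control level, higher means more apoptosis. Every drug was used at one fixed concentration, the higher of two screened. No replicate spread is given; individual values may be noisy. The marker varies much from line to line, for technical or biological reasons.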
This is part of the screen, not chosen by result.

Pair	WM451Lu	A101D	SK-MEL-5
SNS-032 and IMD-0354	179	40.1	191
nutlin-3 and IMD-0354	62.5	91.5	162
enzastaurin and nutlin-3	118	108	52.6
Src-I1 and GW2580	30.3	95.8	177
GW2580 and SNS-032	52.2	147	219
enzastaurin and GW2580	252	119	62.4
pioglitazone and SNS-032	287	173	172
enzastaurin and SNS-032	43.2	190	425
Src-I1 and MK-2206	661	1600	537
pioglitazone and MK-2206	73.0	201	249
Src-I1 and enzastaurin	317	75.9	123
MK-2206 and vorinostat	80.2	131	121
Src-I1 and vorinostat	35.8	143	168
vorinostat and IMD-0354	243	54.2	351
pioglitazone and vorinostat	123	54.5	151
SNS-032 and nutlin-3	804	160	43.3
Src-I1 and pioglitazone	79.3	44.9	74.0
vorinostat and nutlin-3	127	80.0	87.2
vorinostat and SNS-032	183	42.0	66.1
enzastaurin and pioglitazone	241	596	76.2
nutlin-3 and pioglitazone	158	128	136
IMD-0354 and GW2580	55.4	97.2	263
MK-2206 and enzastaurin	34.8	78.7	50.0
Src-I1 and IMD-0354	104	94.0	166
GW2580 and nutlin-3	166	61.6	189
SNS-032 and MK-2206	496	72.4	158
pioglitazone and IMD-0354	54.3	36.5	280
IMD-0354 and enzastaurin	84.5	123	90.9
Src-I1 and nutlin-3	213	241	56.9
vorinostat and GW2580	82.0	119	192

The first 2 entries again:

| Pair | WM451Lu | A101D | SK-MEL-5 |
|---|---|---|---|
| SNS-032 and IMD-0354 | 179 | 40.1 | 191 |
| nutlin-3 and IMD-0354 | 62.5 | 91.5 | 162 |